The values below come from article PMC9830511, “Flot2 acts as a novel mediator of podocyte injury in proteinuric kidney disease” (International Journal of Biological Sciences, 2023).

In this test the target is Glutathione S-transferase (GST) alone. The experiment in a line: pull-down; GST pull-down: GST-Flot2 (30-184) or GST on GST resin; His-podocin (128-284) pulled out of the lysates; immunoblot with anti-His; only the target purified. Background: A western blot detects proteins with antibodies after separation by electrophoresis.

These are yes or no findings as the source states them, for the method shown. Binding seen in cells or lysates may run through a third protein. Tags and fused reporters may be left off the sequences shown.

B1: His-podocin (amino acids 128-284), SPFH domain (domain or fragment, UniProt Q91X05 128-284)
chain: KVVQEYERVIIFRLGHLLPGRAKGPGLFFFLPCLDTYHKVDLRLQTLEIPFHEVVTKDMFIMEIDAVCYYRMENASLLLSSLAHVSKAIQFLVQTTMKRLLAHRSLTEILLERKSIAQDVKVALDAVTCIWGIKVERTEIKDVRLPAGLQHSLAVEA
On to B1, for which the binding entry was “no binding”.
